The list shows a part of the results.
Key:
Assay in all cases: log2 fold change, soluble protein after heating vs DMSO (PISA); higher = thermal stabilisation; K562 lysate, 10 uM; active = over 0.2 and 3.5 SD of the protein, either way, in both replicates (recomputed)
[1] = compound: NCC(=O)Nc1ccc(-n2nc(C(F)(F)F)cc2-c2ccc3c(ccc4ccccc43)c2)cc1
Outline: (§1)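 Dounce homogenisation of K562 pellets in PBS pH 7.4 with 1 mM MgCl2 produced a crude extract, used at 1 mg/mL protein. Exposure to 10 μM compound lasted 30 min, and aliquots were then heated for 3 min across 48°C-58°C, pooled and brought to 0.5% NP-40 at 4°C. The supernatant after 21,000xg for 90 min was quantified by TMTpro 16plex LC-MS/MS with channel sums equalised. Duplicate values are given as log-two fold change in thermal stability relative to solvent controls.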

The chains behind the UniProt entries cited, without tags or fusion partners. Where a name states a change or a piece, a line headed by the entry shows the natural chain unless it says otherwise.
UniProt Q8WU10: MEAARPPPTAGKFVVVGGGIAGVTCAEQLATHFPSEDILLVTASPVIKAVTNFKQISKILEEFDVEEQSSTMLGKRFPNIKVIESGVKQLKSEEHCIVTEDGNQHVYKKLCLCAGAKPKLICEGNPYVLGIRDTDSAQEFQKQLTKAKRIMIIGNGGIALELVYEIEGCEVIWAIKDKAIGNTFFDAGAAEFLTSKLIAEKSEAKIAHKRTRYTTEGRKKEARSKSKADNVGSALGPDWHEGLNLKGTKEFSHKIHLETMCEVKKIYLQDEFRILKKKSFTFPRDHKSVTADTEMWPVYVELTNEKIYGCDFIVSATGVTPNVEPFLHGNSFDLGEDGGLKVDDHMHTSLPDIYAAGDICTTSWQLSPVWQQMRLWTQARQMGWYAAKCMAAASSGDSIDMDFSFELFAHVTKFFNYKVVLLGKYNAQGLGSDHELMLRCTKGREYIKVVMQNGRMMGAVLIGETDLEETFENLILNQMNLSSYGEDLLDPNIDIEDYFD
UniProt P61106, whole entry, looked up: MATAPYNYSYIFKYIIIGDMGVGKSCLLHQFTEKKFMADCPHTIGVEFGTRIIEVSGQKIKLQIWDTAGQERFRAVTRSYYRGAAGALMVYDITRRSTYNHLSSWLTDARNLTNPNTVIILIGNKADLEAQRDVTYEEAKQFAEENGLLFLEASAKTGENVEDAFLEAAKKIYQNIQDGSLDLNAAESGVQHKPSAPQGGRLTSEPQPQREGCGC
UniProt Q5HYI8: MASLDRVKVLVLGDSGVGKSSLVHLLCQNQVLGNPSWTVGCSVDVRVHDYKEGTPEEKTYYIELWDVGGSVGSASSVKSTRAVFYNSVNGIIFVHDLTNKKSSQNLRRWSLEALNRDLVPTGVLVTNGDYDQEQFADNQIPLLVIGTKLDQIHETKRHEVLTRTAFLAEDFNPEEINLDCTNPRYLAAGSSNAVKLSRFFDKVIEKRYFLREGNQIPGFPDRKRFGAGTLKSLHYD
UniProt P49023, whole entry, looked up: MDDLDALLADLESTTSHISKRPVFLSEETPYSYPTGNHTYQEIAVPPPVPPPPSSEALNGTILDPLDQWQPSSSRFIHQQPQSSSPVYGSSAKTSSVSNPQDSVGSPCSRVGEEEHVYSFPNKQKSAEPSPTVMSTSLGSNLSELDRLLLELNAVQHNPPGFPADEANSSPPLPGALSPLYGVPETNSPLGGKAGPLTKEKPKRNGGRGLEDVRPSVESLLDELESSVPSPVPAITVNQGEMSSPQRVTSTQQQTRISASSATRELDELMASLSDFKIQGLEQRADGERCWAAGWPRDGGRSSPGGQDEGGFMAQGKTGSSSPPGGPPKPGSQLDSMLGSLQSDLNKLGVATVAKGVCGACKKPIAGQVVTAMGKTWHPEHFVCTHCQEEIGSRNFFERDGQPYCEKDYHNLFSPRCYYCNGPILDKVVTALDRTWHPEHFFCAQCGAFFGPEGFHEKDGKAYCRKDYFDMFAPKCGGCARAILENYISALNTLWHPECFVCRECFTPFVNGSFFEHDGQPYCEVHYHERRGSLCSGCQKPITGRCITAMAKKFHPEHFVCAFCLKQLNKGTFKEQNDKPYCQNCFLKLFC
UniProt Q92696: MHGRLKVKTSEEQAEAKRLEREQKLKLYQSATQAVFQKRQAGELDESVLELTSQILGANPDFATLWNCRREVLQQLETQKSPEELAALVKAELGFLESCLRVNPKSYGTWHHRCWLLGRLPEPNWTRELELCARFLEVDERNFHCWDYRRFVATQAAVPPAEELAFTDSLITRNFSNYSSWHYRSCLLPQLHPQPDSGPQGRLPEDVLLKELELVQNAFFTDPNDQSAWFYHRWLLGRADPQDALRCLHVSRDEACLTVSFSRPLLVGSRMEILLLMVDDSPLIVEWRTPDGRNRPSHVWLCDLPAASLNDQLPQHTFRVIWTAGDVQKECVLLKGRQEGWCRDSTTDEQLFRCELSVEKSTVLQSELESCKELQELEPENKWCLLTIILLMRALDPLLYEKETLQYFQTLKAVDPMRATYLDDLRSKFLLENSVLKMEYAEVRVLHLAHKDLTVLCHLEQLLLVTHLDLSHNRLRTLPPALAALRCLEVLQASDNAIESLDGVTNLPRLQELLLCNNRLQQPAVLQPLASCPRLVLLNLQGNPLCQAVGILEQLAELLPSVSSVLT
UniProt Q6IQ22: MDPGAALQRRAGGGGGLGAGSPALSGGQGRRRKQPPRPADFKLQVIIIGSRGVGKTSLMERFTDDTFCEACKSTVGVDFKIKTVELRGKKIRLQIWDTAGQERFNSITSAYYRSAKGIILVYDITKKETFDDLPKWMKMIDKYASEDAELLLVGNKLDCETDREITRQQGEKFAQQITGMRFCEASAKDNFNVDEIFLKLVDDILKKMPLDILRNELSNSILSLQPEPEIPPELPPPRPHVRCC
UniProt Q96PU8: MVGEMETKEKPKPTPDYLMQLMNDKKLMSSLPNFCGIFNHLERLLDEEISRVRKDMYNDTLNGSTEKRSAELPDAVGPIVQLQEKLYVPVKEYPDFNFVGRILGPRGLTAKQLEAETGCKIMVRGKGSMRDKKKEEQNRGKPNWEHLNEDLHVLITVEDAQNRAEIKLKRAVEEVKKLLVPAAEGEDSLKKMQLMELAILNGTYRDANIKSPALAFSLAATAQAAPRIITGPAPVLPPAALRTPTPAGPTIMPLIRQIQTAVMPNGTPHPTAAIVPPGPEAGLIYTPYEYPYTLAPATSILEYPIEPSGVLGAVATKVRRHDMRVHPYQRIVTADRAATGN
UniProt Q9NP72: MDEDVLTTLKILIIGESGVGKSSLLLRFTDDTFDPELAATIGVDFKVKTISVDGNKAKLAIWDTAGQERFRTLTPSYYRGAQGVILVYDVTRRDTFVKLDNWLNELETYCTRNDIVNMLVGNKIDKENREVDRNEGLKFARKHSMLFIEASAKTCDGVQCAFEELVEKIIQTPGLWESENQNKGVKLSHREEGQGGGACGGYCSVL
UniProt Q15276: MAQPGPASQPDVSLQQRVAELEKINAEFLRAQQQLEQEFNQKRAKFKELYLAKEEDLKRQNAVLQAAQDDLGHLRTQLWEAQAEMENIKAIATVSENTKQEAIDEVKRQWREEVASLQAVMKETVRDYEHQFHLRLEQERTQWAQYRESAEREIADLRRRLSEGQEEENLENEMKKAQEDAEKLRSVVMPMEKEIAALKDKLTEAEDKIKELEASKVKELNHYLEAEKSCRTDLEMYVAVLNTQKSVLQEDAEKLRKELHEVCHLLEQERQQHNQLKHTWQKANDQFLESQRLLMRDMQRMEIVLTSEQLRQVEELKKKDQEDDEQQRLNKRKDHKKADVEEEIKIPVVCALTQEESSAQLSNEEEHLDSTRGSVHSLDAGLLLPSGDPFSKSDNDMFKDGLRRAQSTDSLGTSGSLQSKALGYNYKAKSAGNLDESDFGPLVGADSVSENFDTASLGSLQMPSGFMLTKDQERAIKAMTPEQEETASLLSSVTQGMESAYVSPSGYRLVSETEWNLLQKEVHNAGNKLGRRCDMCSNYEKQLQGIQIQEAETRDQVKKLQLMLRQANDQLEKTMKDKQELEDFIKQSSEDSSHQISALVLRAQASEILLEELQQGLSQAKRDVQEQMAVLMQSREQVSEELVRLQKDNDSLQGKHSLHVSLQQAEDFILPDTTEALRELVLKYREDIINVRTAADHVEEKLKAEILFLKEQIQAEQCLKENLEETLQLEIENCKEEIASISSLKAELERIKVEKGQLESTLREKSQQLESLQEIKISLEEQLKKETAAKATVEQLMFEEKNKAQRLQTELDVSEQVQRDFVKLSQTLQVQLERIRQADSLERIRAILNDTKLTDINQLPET
UniProt Q96S21: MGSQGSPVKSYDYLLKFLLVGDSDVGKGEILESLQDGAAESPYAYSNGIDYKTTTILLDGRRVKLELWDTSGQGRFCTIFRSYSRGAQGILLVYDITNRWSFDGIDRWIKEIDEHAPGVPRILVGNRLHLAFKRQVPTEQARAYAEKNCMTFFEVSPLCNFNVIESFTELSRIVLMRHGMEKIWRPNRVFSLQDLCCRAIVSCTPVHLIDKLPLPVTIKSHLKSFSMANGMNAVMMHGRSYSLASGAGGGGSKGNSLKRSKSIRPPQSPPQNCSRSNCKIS
UniProt Q9BUV8: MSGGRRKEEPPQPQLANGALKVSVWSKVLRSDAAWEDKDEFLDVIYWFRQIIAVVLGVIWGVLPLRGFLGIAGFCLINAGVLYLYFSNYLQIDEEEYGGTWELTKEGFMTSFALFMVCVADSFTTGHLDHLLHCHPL
UniProt Q86YS3: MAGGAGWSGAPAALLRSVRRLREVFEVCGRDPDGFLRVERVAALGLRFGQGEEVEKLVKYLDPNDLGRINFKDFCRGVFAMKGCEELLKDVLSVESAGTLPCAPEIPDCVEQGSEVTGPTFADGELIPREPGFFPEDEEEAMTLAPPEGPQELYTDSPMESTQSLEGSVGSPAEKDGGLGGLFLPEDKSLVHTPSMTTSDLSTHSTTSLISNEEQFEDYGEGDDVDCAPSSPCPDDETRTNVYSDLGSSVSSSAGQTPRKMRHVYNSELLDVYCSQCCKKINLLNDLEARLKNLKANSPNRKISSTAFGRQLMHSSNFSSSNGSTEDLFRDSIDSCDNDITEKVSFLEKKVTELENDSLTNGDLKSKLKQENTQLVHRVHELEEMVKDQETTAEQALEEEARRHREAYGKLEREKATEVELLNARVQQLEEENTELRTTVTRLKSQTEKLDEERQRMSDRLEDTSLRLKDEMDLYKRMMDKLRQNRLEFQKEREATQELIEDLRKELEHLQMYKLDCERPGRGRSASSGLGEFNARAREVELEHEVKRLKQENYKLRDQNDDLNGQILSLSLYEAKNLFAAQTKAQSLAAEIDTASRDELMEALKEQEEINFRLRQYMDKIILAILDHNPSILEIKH
UniProt Q9Y620: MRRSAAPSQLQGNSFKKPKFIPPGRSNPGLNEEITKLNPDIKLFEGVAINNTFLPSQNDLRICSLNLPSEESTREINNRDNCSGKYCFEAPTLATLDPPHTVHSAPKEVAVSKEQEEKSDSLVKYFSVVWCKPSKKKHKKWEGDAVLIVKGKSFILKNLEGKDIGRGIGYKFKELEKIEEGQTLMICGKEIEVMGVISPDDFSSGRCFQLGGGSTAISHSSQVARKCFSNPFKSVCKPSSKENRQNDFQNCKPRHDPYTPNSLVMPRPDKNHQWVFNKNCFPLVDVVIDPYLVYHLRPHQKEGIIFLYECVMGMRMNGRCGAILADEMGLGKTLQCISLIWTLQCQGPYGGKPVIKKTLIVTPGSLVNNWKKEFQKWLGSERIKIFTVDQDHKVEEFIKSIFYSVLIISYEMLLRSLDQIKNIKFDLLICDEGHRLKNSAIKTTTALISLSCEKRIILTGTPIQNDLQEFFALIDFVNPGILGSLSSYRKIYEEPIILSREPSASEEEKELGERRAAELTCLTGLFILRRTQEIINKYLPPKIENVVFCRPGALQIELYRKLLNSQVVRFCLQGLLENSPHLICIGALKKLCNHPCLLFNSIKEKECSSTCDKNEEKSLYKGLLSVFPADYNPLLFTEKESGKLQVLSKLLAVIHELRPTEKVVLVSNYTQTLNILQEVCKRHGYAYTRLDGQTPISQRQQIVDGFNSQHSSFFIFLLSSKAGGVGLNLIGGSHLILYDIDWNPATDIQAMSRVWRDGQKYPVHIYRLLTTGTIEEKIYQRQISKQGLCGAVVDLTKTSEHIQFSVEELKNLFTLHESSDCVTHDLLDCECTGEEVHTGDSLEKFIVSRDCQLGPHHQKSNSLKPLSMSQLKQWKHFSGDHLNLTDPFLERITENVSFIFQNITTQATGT
UniProt O75771: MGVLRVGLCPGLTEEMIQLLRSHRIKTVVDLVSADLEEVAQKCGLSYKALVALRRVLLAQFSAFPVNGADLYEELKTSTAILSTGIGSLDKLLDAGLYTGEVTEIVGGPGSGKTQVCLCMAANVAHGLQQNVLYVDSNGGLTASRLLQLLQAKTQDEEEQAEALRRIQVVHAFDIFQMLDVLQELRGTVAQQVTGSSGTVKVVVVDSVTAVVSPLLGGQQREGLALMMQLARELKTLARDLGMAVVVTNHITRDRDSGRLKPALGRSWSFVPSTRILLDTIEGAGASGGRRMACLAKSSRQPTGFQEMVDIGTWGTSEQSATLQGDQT
UniProt P20337: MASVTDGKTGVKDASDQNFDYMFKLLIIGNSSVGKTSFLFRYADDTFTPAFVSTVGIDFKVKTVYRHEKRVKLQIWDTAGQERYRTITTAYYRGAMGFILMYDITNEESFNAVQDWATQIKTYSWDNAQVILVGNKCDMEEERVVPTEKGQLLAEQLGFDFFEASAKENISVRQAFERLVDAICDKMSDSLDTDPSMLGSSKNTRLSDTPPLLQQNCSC
UniProt Q15274: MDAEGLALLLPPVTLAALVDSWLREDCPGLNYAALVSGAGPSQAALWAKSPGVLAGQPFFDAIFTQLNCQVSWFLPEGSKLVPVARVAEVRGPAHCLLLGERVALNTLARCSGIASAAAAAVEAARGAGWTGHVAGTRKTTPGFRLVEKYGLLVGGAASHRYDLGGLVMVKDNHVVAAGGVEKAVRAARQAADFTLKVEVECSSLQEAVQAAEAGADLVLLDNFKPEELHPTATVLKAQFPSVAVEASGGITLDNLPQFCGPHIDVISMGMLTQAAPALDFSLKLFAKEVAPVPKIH

vorinostat = compound: O=C(CCCCCCC(=O)Nc1ccccc1)NO [vorinostat]
Outline: as §1

silmitasertib = compound: O=C(O)c1ccc2c(c1)nc(Nc1cccc(Cl)c1)c1ccncc12 [silmitasertib]
Outline: as §1

[2] = compound: O=C1NC(=O)C(c2cnc3ccccn23)=C1c1cn2c3c(cc(F)cc13)CN(C(=O)N1CCCCC1)CC2
Outline: as §1

entospletinib = compound: c1cn2cc(-c3ccc4cn[nH]c4c3)nc(Nc3ccc(N4CCOCC4)cc3)c2n1 [entospletinib]
Outline: as §1

PYROXD1 (UniProt Q8WU10)
log2 fold change [1]: inactive: -0.06 | log2 fold change (vorinostat): inactive: -0.193 | log2 fold change (silmitasertib): inactive: 0.035 | log2 fold change [2]: inactive: -0.03 | log2 fold change (entospletinib): inactive: -0.102

RAB14 (UniProt P61106)
log2 fold change [1]: inactive: 0.023 | log2 fold change (vorinostat): inactive: 0.093 | log2 fold change (silmitasertib): inactive: -0.025 | log2 fold change [2]: inactive: 0.042 | log2 fold change (entospletinib): inactive: -0.029

RABL3 (UniProt Q5HYI8)
log2 fold change [1]: inactive: 0.031 | log2 fold change (vorinostat): inactive: -0.126 | log2 fold change (silmitasertib): inactive: 0.445 | log2 fold change [2]: inactive: -0.039 | log2 fold change (entospletinib): inactive: 0

PXN isoform 3 (UniProt P49023)
log2 fold change [1]: inactive: -0.047 | log2 fold change (vorinostat): inactive: 0.001 | log2 fold change (silmitasertib): inactive: -0.023 | log2 fold change [2]: inactive: 0.018 | log2 fold change (entospletinib): inactive: 0.043

RANBP9 (UniProt Q96S59)
log2 fold change [1]: inactive: -0.005 | log2 fold change (vorinostat): inactive: -0.129 | log2 fold change (silmitasertib): inactive: 0.017 | log2 fold change [2]: inactive: -0.008 | log2 fold change (entospletinib): inactive: -0.001

RAD9A (UniProt Q99638)
log2 fold change [1]: inactive: 0.017 | log2 fold change (vorinostat): inactive: 0.009 | log2 fold change (silmitasertib): inactive: 0.001 | log2 fold change [2]: inactive: -0.007 | log2 fold change (entospletinib): inactive: 0

RABGGTA (UniProt Q92696)
log2 fold change [1]: inactive: -0.02 | log2 fold change (vorinostat): inactive: -0.068 | log2 fold change (silmitasertib): inactive: 0.054 | log2 fold change [2]: inactive: -0.019 | log2 fold change (entospletinib): inactive: 0

RABL6 (UniProt Q3YEC7)
log2 fold change [1]: inactive: -0.017 | log2 fold change (vorinostat): inactive: 0.074 | log2 fold change (silmitasertib): inactive: -0.006 | log2 fold change [2]: inactive: -0.014 | log2 fold change (entospletinib): inactive: -0.003

RALGPS2 (UniProt Q86X27)
log2 fold change [1]: inactive: 0.103 | log2 fold change (vorinostat): inactive: -0.369 | log2 fold change (silmitasertib): inactive: 0.037 | log2 fold change [2]: inactive: 0.069 | log2 fold change (entospletinib): inactive: 0.041

RAB12 (UniProt Q6IQ22)
log2 fold change [1]: inactive: 0.021 | log2 fold change (vorinostat): inactive: 0.021 | log2 fold change (silmitasertib): inactive: 0.003 | log2 fold change [2]: inactive: -0.053 | log2 fold change (entospletinib): inactive: 0

RAP2B (UniProt P61225)
log2 fold change [1]: inactive: -0.013 | log2 fold change (vorinostat): inactive: 0.046 | log2 fold change (silmitasertib): inactive: 0.083 | log2 fold change [2]: inactive: 0.005 | log2 fold change (entospletinib): inactive: -0.06

QKI (UniProt Q96PU8)
log2 fold change [1]: inactive: -0.008 | log2 fold change (vorinostat): inactive: -0.147 | log2 fold change (silmitasertib): inactive: 0.021 | log2 fold change [2]: inactive: 0.045 | log2 fold change (entospletinib): inactive: 0.007

RAB8B (UniProt Q92930)
log2 fold change [1]: inactive: -0.022 | log2 fold change (vorinostat): inactive: 0.135 | log2 fold change (silmitasertib): inactive: -0.025 | log2 fold change [2]: inactive: 0 | log2 fold change (entospletinib): inactive: -0.021

RAB18 (UniProt Q9NP72)
log2 fold change [1]: inactive: 0.015 | log2 fold change (vorinostat): inactive: 0.041 | log2 fold change (silmitasertib): inactive: 0.095 | log2 fold change [2]: inactive: -0.007 | log2 fold change (entospletinib): inactive: -0.177

RABEP1 (UniProt Q15276)
log2 fold change [1]: inactive: 0.025 | log2 fold change (vorinostat): inactive: 0.076 | log2 fold change (silmitasertib): inactive: -0.004 | log2 fold change [2]: inactive: -0.012 | log2 fold change (entospletinib): inactive: -0.012

QDPR (UniProt P09417)
log2 fold change [1]: inactive: 0.009 | log2 fold change (vorinostat): inactive: -0.043 | log2 fold change (silmitasertib): inactive: 0.025 | log2 fold change [2]: inactive: -0.02 | log2 fold change (entospletinib): inactive: 0.012

RANBP6 (UniProt O60518)
log2 fold change [1]: inactive: 0.013 | log2 fold change (vorinostat): active: -0.345 | log2 fold change (silmitasertib): inactive: 0.054 | log2 fold change [2]: inactive: 0.041 | log2 fold change (entospletinib): inactive: 0.011

RAB40C (UniProt Q96S21)
log2 fold change [1]: inactive: 0.066 | log2 fold change (vorinostat): inactive: 0.172 | log2 fold change (silmitasertib): inactive: -0.047 | log2 fold change [2]: inactive: -0.046 | log2 fold change (entospletinib): inactive: 0.08

PYCR1 isoform 3 (UniProt P32322)
log2 fold change (vorinostat): inactive: 0.096 | log2 fold change (silmitasertib): inactive: -0.008 | log2 fold change [2]: inactive: 0.012 | log2 fold change (entospletinib): inactive: 0.01

RAD17 (UniProt O75943)
log2 fold change [1]: inactive: -0.044 | log2 fold change [2]: inactive: -0.052 | log2 fold change (entospletinib): inactive: -0.039

PYCARD isoform 2 (UniProt Q9ULZ3)
log2 fold change (vorinostat): inactive: 0.106 | log2 fold change (silmitasertib): inactive: -0.014 | log2 fold change [2]: inactive: 0.101

RAB7A (UniProt P51149)
log2 fold change [1]: inactive: 0.008 | log2 fold change (vorinostat): inactive: 0.145 | log2 fold change (silmitasertib): inactive: 0.012 | log2 fold change [2]: inactive: -0.02 | log2 fold change (entospletinib): inactive: -0.009

RAI1 (UniProt Q7Z5J4)
log2 fold change [2]: inactive: 0.019 | log2 fold change (entospletinib): inactive: 0.091

RALBP1 (UniProt Q15311)
log2 fold change [1]: inactive: -0.022 | log2 fold change (vorinostat): inactive: 0.022 | log2 fold change (silmitasertib): inactive: 0.023 | log2 fold change [2]: inactive: -0.004 | log2 fold change (entospletinib): inactive: -0.004

RAB5IF isoform 5 (UniProt Q9BUV8)
log2 fold change [1]: inactive: -0.039 | log2 fold change (vorinostat): inactive: -0.039 | log2 fold change (silmitasertib): inactive: -0.007 | log2 fold change (entospletinib): inactive: -0.015

RAB29 (UniProt O14966)
log2 fold change (vorinostat): inactive: -0.199 | log2 fold change (silmitasertib): inactive: 0.111

RAD51 (UniProt Q06609)
log2 fold change [1]: inactive: 0.21 | log2 fold change (vorinostat): inactive: -0.151 | log2 fold change (silmitasertib): inactive: 0.059 | log2 fold change [2]: inactive: 0.011 | log2 fold change (entospletinib): inactive: -0.028

RAB27B (UniProt O00194)
log2 fold change [1]: inactive: -0.001 | log2 fold change (vorinostat): inactive: 0.12 | log2 fold change (silmitasertib): inactive: 0.002 | log2 fold change (entospletinib): inactive: 0.167

RAB11FIP4 (UniProt Q86YS3)
log2 fold change [1]: inactive: 0.035 | log2 fold change (vorinostat): inactive: 0.111 | log2 fold change (silmitasertib): inactive: -0.082 | log2 fold change (entospletinib): inactive: 0.019

R3HDM2 (UniProt B5MCU0)
log2 fold change (vorinostat): inactive: 0.012 | log2 fold change (silmitasertib): inactive: -0.05 | log2 fold change [2]: inactive: -0.049 | log2 fold change (entospletinib): inactive: -0.209

RAD54B (UniProt Q9Y620)
log2 fold change [1]: inactive: -0.142 | log2 fold change [2]: inactive: -0.004 | log2 fold change (entospletinib): inactive: -0.025

RANGRF (UniProt Q9HD47)
log2 fold change (vorinostat): inactive: -0.006 | log2 fold change (silmitasertib): inactive: 0.055 | log2 fold change [2]: inactive: 0.003

PYGO2 (UniProt Q9BRQ0)
log2 fold change (vorinostat): inactive: 0.151 | log2 fold change (silmitasertib): inactive: -0.067 | log2 fold change [2]: inactive: -0.003 | log2 fold change (entospletinib): active: 0.269

RAB11FIP3 isoform 3 (UniProt O75154)
log2 fold change (vorinostat): inactive: 0.002 | log2 fold change (silmitasertib): inactive: -0.329 | log2 fold change (entospletinib): inactive: 0

RAD51D (UniProt O75771)
log2 fold change [1]: inactive: 0.012 | log2 fold change (vorinostat): inactive: -0.064 | log2 fold change (silmitasertib): inactive: -0.075 | log2 fold change (entospletinib): inactive: -0.017

RAB3B (UniProt P20337)
log2 fold change [2]: inactive: 0.072

RACK1 (UniProt D6RF23)
log2 fold change [1]: inactive: 0.004 | log2 fold change (entospletinib): inactive: -0.073

QPRT (UniProt Q15274)
log2 fold change [1]: inactive: -0.064 | log2 fold change (vorinostat): inactive: 0.12 | log2 fold change (silmitasertib): inactive: -0.016 | log2 fold change [2]: inactive: 0.032 | log2 fold change (entospletinib): inactive: 0.001

RAB33B (UniProt Q9H082)
log2 fold change [1]: inactive: 0.074 | log2 fold change (vorinostat): inactive: 0.019 | log2 fold change (silmitasertib): inactive: -0.061 | log2 fold change (entospletinib): inactive: -0.066

NA (UniProt Q4G0T1)
log2 fold change (vorinostat): inactive: -0.027 | log2 fold change (silmitasertib): inactive: 0.092 | log2 fold change [2]: inactive: -0.036

RAD51AP1 (UniProt Q96B01)
log2 fold change (vorinostat): inactive: 0.053 | log2 fold change (silmitasertib): inactive: -0.077 | log2 fold change [2]: inactive: 0.014 | log2 fold change (entospletinib): inactive: -0.011

RAD54L (UniProt Q92698)
log2 fold change (vorinostat): active: -1.06 | log2 fold change (silmitasertib): inactive: 0.065

From the supplement of paper PMC10849652
